Source: the supplement of paper PMC10849652
The list shows a part of the results.

Chains of the proteins cited; added tags and fusions are not shown. Lines headed by an entry give the natural chain unless they say otherwise; changes in a name come on top.
UniProt P51149, whole entry, looked up: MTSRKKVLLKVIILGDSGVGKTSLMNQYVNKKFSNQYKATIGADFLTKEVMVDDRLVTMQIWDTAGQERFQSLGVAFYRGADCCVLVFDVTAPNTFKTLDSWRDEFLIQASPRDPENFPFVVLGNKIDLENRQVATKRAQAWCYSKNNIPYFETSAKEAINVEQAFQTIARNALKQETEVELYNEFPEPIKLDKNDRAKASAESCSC
UniProt Q15274: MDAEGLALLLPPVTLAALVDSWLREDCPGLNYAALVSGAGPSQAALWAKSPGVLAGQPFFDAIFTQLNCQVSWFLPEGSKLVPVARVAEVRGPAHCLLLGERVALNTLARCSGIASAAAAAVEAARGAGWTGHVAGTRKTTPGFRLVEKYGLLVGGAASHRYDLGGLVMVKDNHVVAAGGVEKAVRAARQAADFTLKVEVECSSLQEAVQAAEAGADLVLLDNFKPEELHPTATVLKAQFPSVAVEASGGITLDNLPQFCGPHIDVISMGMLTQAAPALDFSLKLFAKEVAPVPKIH
UniProt Q96C36: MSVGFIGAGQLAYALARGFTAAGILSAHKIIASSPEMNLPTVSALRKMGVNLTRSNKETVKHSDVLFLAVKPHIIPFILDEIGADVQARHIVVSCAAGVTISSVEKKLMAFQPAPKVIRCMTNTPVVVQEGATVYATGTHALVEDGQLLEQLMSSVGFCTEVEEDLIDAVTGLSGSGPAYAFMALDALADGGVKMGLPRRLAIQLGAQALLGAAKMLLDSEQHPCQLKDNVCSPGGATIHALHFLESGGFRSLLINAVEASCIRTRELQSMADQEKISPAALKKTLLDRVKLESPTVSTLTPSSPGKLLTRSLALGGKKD
UniProt P49792, whole entry, looked up: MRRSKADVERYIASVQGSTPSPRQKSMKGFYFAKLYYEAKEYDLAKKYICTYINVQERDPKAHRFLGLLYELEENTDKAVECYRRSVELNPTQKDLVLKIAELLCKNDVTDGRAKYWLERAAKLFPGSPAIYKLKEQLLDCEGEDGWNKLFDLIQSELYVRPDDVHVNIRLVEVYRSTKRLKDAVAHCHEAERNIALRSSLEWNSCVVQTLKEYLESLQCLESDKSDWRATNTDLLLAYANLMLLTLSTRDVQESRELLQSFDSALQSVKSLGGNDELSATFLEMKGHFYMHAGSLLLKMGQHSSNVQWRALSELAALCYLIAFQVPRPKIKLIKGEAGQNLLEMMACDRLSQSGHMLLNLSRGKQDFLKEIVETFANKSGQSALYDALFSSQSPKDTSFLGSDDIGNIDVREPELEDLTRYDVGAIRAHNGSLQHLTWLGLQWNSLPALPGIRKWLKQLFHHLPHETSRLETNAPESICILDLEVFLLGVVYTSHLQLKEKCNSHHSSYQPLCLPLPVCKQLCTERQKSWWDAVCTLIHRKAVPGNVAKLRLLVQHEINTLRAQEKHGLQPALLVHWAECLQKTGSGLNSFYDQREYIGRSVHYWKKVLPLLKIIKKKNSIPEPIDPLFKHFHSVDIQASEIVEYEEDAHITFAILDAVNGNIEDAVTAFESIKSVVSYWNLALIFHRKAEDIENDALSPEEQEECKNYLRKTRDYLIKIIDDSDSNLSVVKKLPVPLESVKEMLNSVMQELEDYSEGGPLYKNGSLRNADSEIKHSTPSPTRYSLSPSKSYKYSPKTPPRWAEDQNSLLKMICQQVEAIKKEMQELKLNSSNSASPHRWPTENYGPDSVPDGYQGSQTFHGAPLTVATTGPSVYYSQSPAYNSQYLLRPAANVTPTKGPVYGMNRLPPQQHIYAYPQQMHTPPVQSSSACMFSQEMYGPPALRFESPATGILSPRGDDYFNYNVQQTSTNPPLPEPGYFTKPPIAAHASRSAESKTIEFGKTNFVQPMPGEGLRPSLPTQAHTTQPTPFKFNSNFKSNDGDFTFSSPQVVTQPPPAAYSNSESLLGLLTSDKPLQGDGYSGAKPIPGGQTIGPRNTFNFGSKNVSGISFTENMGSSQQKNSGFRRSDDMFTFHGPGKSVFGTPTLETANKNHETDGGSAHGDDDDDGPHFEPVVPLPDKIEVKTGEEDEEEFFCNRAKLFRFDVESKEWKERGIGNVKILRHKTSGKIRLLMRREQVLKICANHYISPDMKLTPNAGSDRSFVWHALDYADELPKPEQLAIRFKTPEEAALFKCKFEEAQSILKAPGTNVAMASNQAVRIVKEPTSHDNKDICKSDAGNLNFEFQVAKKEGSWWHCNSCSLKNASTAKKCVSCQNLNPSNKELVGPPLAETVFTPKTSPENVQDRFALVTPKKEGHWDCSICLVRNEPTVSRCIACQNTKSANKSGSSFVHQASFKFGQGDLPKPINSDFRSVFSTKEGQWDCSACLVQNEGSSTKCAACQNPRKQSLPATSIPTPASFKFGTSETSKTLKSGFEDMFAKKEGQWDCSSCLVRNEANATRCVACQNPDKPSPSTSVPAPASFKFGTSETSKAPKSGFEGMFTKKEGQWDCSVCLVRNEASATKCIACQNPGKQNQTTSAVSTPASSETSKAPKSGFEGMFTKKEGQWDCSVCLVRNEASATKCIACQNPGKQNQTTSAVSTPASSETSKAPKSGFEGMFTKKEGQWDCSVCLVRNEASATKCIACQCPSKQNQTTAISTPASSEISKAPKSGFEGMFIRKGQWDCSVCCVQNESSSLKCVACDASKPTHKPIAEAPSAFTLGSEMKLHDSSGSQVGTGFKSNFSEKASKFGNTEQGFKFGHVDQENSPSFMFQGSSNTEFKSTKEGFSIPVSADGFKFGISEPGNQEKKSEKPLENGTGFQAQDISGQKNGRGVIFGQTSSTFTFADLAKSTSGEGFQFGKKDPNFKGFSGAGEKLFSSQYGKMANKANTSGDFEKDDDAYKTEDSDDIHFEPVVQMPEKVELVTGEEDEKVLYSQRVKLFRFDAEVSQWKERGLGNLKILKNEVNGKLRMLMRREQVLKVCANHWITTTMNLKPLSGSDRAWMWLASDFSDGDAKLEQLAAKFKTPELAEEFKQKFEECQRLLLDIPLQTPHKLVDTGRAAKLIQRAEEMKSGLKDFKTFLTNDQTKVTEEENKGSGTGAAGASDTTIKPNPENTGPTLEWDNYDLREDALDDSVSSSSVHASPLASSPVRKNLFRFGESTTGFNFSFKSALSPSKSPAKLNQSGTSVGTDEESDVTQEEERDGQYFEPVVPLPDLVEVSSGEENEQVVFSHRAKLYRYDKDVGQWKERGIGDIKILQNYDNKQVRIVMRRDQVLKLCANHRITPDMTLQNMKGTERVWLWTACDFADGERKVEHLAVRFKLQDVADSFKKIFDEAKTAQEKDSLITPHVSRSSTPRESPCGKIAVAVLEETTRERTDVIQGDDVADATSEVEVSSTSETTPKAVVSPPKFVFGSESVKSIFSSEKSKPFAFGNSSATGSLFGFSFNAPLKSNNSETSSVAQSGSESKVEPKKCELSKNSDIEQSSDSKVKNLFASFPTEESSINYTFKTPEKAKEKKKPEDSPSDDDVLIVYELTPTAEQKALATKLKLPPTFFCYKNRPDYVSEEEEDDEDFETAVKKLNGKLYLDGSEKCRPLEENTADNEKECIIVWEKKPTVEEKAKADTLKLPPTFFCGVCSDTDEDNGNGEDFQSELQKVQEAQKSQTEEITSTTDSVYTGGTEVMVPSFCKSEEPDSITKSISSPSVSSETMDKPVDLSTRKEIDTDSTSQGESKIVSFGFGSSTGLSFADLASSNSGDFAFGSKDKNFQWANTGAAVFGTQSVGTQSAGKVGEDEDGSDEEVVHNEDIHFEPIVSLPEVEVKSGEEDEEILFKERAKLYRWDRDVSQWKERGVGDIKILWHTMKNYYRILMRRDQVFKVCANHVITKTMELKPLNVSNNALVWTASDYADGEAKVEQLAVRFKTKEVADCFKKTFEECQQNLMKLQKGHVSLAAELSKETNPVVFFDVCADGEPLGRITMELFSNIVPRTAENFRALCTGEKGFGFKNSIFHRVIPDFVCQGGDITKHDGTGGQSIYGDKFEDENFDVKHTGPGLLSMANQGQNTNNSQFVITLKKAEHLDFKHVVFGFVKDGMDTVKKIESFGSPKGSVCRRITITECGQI
UniProt Q6VN20, whole entry, looked up: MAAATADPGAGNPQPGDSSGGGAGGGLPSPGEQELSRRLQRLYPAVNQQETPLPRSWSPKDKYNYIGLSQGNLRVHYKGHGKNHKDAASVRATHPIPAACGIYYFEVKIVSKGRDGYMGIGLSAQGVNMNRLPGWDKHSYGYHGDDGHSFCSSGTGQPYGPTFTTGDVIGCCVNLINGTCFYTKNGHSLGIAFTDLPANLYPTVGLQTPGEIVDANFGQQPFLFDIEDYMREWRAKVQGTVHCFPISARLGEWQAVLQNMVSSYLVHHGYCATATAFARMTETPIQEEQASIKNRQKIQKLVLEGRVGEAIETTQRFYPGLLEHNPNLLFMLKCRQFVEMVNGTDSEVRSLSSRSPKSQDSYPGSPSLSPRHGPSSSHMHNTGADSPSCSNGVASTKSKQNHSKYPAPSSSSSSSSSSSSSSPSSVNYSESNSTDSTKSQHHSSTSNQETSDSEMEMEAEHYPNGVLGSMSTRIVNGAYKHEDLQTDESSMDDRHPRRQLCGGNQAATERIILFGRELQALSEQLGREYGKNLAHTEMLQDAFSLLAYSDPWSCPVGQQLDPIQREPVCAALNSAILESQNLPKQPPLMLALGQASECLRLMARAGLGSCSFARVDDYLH
UniProt Q9UL25: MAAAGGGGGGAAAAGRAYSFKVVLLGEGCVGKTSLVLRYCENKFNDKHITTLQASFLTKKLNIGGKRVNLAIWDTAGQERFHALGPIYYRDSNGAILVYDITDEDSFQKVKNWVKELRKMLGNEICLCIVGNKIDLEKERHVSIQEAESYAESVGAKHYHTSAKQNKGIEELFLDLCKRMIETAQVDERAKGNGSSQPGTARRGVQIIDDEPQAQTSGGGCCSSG
UniProt P10114: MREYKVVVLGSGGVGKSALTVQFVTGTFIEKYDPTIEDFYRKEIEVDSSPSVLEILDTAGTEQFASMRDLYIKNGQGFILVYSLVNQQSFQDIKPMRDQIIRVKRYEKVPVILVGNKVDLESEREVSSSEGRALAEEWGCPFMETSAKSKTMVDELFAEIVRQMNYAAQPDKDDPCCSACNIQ
UniProt P54725: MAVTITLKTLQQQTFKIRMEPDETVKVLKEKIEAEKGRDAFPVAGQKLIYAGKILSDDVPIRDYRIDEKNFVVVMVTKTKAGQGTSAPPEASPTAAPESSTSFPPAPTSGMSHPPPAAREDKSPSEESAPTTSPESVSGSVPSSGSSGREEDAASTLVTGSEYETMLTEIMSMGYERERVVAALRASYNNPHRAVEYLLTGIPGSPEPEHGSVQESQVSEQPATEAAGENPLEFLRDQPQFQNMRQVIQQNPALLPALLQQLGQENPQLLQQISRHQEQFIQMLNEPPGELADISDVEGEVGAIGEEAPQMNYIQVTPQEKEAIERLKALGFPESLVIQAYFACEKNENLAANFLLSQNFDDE
UniProt Q6K0P9: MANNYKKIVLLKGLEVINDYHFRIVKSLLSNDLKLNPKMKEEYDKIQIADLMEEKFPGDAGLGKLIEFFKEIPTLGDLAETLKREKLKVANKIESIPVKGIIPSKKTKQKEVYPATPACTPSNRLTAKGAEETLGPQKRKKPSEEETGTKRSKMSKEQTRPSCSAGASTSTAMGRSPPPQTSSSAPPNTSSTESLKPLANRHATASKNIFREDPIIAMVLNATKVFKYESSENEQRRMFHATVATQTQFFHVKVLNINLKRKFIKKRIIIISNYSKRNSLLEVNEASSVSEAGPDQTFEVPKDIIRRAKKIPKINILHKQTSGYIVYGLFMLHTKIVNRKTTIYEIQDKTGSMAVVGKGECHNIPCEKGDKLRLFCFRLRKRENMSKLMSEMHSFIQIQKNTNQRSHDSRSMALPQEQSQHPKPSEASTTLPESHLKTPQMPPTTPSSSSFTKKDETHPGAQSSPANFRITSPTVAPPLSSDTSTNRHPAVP
UniProt Q9UL26: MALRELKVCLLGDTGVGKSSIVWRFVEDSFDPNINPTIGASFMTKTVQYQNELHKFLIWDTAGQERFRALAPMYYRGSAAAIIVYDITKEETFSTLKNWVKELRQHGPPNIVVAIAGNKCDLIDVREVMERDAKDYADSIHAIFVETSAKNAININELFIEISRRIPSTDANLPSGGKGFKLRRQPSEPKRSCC
UniProt P61006: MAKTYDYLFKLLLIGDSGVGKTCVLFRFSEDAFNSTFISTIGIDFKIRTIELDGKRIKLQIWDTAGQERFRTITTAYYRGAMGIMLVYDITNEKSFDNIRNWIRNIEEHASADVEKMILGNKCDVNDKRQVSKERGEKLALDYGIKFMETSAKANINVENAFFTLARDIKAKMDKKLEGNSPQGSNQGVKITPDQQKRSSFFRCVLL
UniProt Q9BTL3: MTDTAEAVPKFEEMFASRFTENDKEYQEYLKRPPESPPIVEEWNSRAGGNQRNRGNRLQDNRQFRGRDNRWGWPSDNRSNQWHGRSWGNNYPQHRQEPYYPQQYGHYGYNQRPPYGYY

Tests used:
Test in all cases: log2 fold change, soluble protein after heating vs DMSO (PISA); higher = thermal stabilisation; K562 lysate, 10 uM; active = over 0.2 and 3.5 SD of the protein, either way, in both replicates (recomputed)
nilotinib = compound: Cc1cn(-c2cc(NC(=O)c3ccc(C)c(Nc4nccc(-c5cccnc5)n4)c3)cc(C(F)(F)F)c2)cn1 [nilotinib]
Method in brief: (§1)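 Log-two fold change in thermal stability relative to solvent controls is reported from duplicates. For each sample, crude K562 extract from dounce-homogenised pellets in PBS pH 7.4 with 1 mM MgCl2, at 1 mg/mL protein, was treated with 10 μM compound for 30 min. Aliquots heated for 3 min across 48°C-58°C were pooled, brought to 0.5% NP-40 at 4°C and cleared at 21,000xg for 90 min. The supernatant was quantified by TMTpro 16plex LC-MS/MS with channel sums equalised.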

[1] = compound: Cc1nc(Nc2n[nH]c3c2CN(C(=O)N[C@H](CN(C)C)c2ccccc2)C3(C)C)c2sccc2n1
Method in brief: as §1

dasatinib = compound: Cc1nc(Nc2ncc(C(=O)Nc3c(C)cccc3Cl)s2)cc(N2CCN(CCO)CC2)n1 [dasatinib]
Method in brief: as §1

[2] = compound: Cc1ncc(-c2ccnc(Nc3ccc(S(C)(=O)=O)cc3)n2)n1C(C)C
Method in brief: as §1

[3] = compound: Cn1cc(-c2ccc3c(c2)CCN3C(=O)Cc2cccc(C(F)(F)F)c2)c2c(N)ncnc21
Method in brief: as §1

quisinostat = compound: Cn1cc(CNCC2CCN(c3ncc(C(=O)NO)cn3)CC2)c2ccccc21 [quisinostat]
Method in brief: as §1

tipifarnib = compound: Cn1cncc1[C@@](N)(c1ccc(Cl)cc1)c1ccc2c(c1)c(-c1cccc(Cl)c1)cc(=O)n2C [tipifarnib]
Method in brief: as §1

[4] = compound: NC(=O)Nc1cc(-c2cccc(F)c2)sc1C(=O)N[C@H]1CCCNC1
Method in brief: as §1

[5] = compound: NC(=O)c1cnc(N[C@@H]2CCCC[C@@H]2N)nc1Nc1cccc(-n2nccn2)c1
Method in brief: as §1

[6] = compound: NC1(c2ccc(-c3nc4ccn5c(=O)[nH]nc5c4cc3-c3ccccc3)cc2)CCC1
Method in brief: as §1

Measured: log2 fold change

RAB7A (UniProt P51149)
inactive: nilotinib 0.032 | [1] -0.022 | dasatinib -0.022 | [2] -0.005 | [3] 0.001 | quisinostat 0.014 | tipifarnib -0.046 | [4] -0.02 | [5] -0.002 | [6] -0.018

PXK (UniProt Q7Z7A4)
inactive: nilotinib 0.031 | [1] -0.031 | dasatinib 0.207 | [2] -0.034 | [3] 0.023 | quisinostat 0.006 | tipifarnib 0.013 | [4] 0.006 | [5] -0.016 | [6] 0.007

PYGL (UniProt P06737)
inactive: nilotinib 0.022 | [1] 0 | dasatinib 0.123 | [2] -0.008 | [3] 0.003 | quisinostat 0.011 | tipifarnib 0.018 | [4] -0.002 | [5] 0.009 | [6] 0.041

RANBP3 isoform 2 (UniProt Q9H6Z4)
inactive: nilotinib -0.04 | [1] -0.026 | dasatinib 0.061 | [2] -0.034 | [3] 0.162 | quisinostat -0.117 | tipifarnib 0.041 | [4] 0.019 | [5] 0.028

RAB13 (UniProt P51153)
inactive: nilotinib -0.045 | [1] 0.006 | dasatinib -0.015 | [2] -0.074 | [3] 0.011 | quisinostat 0.188 | tipifarnib -0.047 | [4] -0.055 | [5] -0.095 | [6] 0.123

QPRT (UniProt Q15274)
inactive: nilotinib 0.016 | [1] -0.007 | dasatinib -0.033 | [2] 0.025 | [3] -0.006 | quisinostat 0.045 | tipifarnib -0.011 | [4] -0.062 | [5] 0.003 | [6] -0.004

Fetched one by one from the entries so far (2):
PYGL (UniProt P06737)
inactive: nilotinib 0.022 | [1] 0 | dasatinib 0.123 | [2] -0.008 | [3] 0.003 | quisinostat 0.011 | tipifarnib 0.018 | [4] -0.002 | [5] 0.009 | [6] 0.041

RAB13 (UniProt P51153)
inactive: nilotinib -0.045 | [1] 0.006 | dasatinib -0.015 | [2] -0.074 | [3] 0.011 | quisinostat 0.188 | tipifarnib -0.047 | [4] -0.055 | [5] -0.095 | [6] 0.123

Remaining list, next part:

RAF1 isoform 2 (UniProt P04049)
inactive: nilotinib 0.054 | [1] -0.005 | dasatinib 0.169 | [2] -0.094 | [3] -0.022 | quisinostat -0.06 | tipifarnib -0.036 | [4] 0.063 | [5] -0.021 | [6] -0.008

RAPGEF2, A0A2R8YGD3
inactive: nilotinib -0.032 | [1] 0.027 | dasatinib 0.052 | [2] -0.036 | [3] 0.008 | quisinostat -0.018 | tipifarnib -0.017 | [4] 0.054 | [5] -0.02 | [6] 0.024

PYCR2 (UniProt Q96C36)
inactive: nilotinib 0.03 | [1] -0.027 | dasatinib 0.011 | [2] -0.007 | [3] -0.005 | quisinostat 0.073 | tipifarnib -0.015 | [4] -0.021 | [5] 0.007 | [6] 0.018

RANBP2 (UniProt P49792)
inactive: nilotinib -0.018 | [1] 0.001 | dasatinib -0.059 | [2] 0.006 | [3] 0.021 | quisinostat -0.05 | tipifarnib -0.055 | [4] 0.046 | [5] 0.007 | [6] -0.003

RAB11A (UniProt P62491)
inactive: nilotinib -0.061 | [1] -0.024 | dasatinib 0.017 | [2] 0.237 | [3] 0.013 | quisinostat 0.047 | tipifarnib -0.128 | [4] -0.009 | [5] 0.048 | [6] -0.03

RANBP10 (UniProt Q6VN20)
inactive: nilotinib 0.009 | [1] 0.015 | dasatinib -0.04 | [2] 0.043 | [3] 0.016 | quisinostat -0.008 | tipifarnib 0.001 | [4] 0.029 | [5] 0.015 | [6] 0.004

RAB21 (UniProt Q9UL25)
inactive: nilotinib 0.069 | [1] -0.036 | dasatinib 0.043 | [2] -0.017 | [3] -0.022 | quisinostat -0.023 | tipifarnib -0.051 | [4] 0.019 | [5] -0.017 | [6] -0.007

RAP2A (UniProt P10114)
inactive: nilotinib -0.003 | [1] -0.05 | dasatinib 0.049 | [2] 0.042 | [3] -0.017 | quisinostat 0.001 | tipifarnib 0.04 | [4] -0.017 | [5] 0.021 | [6] -0.004

RAD54B (UniProt Q9Y620)
inactive: nilotinib -0.092 | [1] -0.043 | dasatinib -0.054 | [2] -0.035 | [3] 0.001 | quisinostat -0.341 | tipifarnib 0.064 | [4] -0.002

RABL6 (UniProt Q3YEC7)
inactive: nilotinib -0.039 | [1] 0.022 | dasatinib 0.039 | [2] 0.017 | [3] 0.008 | quisinostat -0.022 | tipifarnib 0.003 | [4] -0.015 | [5] -0.016 | [6] -0.006

RALGAPA1 isoform 6 (UniProt Q6GYQ0)
inactive: nilotinib -0.05 | [1] -0.044 | dasatinib -0.018 | [2] -0.066 | [3] 0.071 | quisinostat -0.15 | tipifarnib 0.019 | [4] 0.039 | [5] 0.052 | [6] -0.08

RAP2C (UniProt Q9Y3L5)
inactive: nilotinib 0.058 | [1] 0.015 | dasatinib 0.035 | [2] -0.162 | [3] 0.088 | quisinostat 0.054 | tipifarnib -0.122 | [4] -0.055 | [5] 0.006 | [6] -0.052

RAD17 (UniProt O75943)
inactive: nilotinib -0.027 | [1] 0.073 | dasatinib -0.064 | [2] -0.023 | [3] 0 | quisinostat -0.032 | tipifarnib -0.085 | [4] 0.038

RAD23A (UniProt P54725)
inactive: nilotinib -0.032 | [1] 0.042 | dasatinib 0.02 | [2] -0.05 | [3] -0.01 | quisinostat 0 | tipifarnib -0.02 | [4] -0.009 | [5] 0.007 | [6] 0.026

RAB5A (UniProt P20339)
inactive: nilotinib 0.005 | [1] 0.022 | dasatinib -0.021 | [2] 0.051 | [3] -0.087 | quisinostat -0.108 | tipifarnib -0.032 | [4] -0.003 | [5] -0.013 | [6] -0.049

RAI14 isoform 2 (UniProt Q9P0K7)
inactive: nilotinib -0.004 | [1] -0.006 | dasatinib -0.003 | [2] -0.05 | [3] 0.013 | quisinostat -0.023 | tipifarnib -0.036 | [4] -0.02 | [5] 0.012 | [6] -0.013

PYHIN1 (UniProt Q6K0P9)
inactive: nilotinib -0.111 | [1] 0.07 | dasatinib -0.017 | [2] 0.312 | [3] 0.086 | quisinostat 0.055 | tipifarnib 0.191 | [4] -0.192 | [5] -0.114

PYM1 (UniProt Q9BRP8)
inactive: nilotinib 0.027 | [1] 0.006 | dasatinib -0.075 | [2] 0.04 | [3] -0.001 | quisinostat -0.047 | tipifarnib -0.018 | [4] 0.007 | [5] -0.025 | [6] -0.003

RAB22A (UniProt Q9UL26)
inactive: nilotinib -0.009 | [1] -0.016 | dasatinib -0.056 | [2] 0.029 | [3] -0.053 | quisinostat 0.013 | tipifarnib -0.025 | [4] -0.013 | [5] 0.047 | [6] -0.053

RAB8A (UniProt P61006)
inactive: nilotinib -0.043 | [1] -0.009 | dasatinib -0.028 | [2] -0.1 | [3] 0.006 | quisinostat 0.091 | tipifarnib -0.059 | [4] -0.064 | [5] -0.048 | [6] 0.042

RANBP9 (UniProt Q96S59)
inactive: nilotinib 0.019 | [1] -0.009 | dasatinib -0.005 | [2] -0.028 | [3] -0.015 | quisinostat -0.031 | tipifarnib 0 | [4] 0.031 | [5] 0.022 | [6] -0.049

RAMAC (UniProt Q9BTL3)
inactive: nilotinib -0.049 | [1] 0.036 | dasatinib 0.045 | [2] 0.069 | [3] 0.017 | quisinostat 0.118 | tipifarnib -0.022 | [4] -0.011 | [5] -0.042 | [6] 0.05

RANBP6 (UniProt O60518)
inactive: nilotinib 0.039 | [1] -0.036 | dasatinib -0.002 | [2] -0.071 | [3] 0.049 | quisinostat -0.063 | tipifarnib -0.072 | [4] 0.055 | [5] 0.062 | [6] -0.06

RAD51 (UniProt Q06609)
inactive: nilotinib 0.039 | [1] -0.002 | dasatinib 0 | [2] 0.009 | [3] 0.01 | quisinostat -0.016 | tipifarnib 0.018 | [4] 0.046 | [5] -0.099 | [6] 0.054
